The supplement of paper PMC10849652
The other results are listed elsewhere or left out.

By UniProt entry, the sequences of proteins in these tests, tags left out. Where a name states a change or a piece, a line headed by the entry shows the natural chain unless it says otherwise.
UniProt Q13625: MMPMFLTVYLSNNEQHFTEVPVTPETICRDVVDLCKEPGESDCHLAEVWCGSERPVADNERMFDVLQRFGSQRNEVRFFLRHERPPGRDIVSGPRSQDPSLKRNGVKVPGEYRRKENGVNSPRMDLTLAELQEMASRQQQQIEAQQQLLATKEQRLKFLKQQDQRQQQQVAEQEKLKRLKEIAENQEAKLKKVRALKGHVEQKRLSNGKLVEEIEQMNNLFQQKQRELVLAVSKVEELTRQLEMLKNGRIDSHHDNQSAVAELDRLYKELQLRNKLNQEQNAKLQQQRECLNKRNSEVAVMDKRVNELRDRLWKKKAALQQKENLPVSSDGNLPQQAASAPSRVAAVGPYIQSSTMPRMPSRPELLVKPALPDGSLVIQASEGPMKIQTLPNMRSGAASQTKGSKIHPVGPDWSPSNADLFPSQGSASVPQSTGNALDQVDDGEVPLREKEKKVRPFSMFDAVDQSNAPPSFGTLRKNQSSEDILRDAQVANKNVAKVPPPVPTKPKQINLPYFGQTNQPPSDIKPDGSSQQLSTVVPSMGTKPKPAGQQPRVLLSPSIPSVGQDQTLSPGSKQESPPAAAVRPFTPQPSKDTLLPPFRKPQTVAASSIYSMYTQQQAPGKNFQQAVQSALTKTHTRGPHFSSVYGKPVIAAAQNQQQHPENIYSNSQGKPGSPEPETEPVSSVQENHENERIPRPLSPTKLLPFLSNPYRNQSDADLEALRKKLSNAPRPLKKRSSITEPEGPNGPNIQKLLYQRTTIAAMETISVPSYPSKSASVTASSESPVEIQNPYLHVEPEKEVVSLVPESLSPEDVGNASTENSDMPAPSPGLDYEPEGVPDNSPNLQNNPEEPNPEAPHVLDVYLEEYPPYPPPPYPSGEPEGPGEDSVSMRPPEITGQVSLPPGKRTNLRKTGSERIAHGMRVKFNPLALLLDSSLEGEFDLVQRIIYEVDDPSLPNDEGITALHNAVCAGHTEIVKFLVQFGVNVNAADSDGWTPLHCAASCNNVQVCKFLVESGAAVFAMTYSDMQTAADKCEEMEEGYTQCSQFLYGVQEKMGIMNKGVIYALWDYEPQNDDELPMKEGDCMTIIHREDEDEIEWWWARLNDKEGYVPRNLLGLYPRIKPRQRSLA
UniProt Q12931: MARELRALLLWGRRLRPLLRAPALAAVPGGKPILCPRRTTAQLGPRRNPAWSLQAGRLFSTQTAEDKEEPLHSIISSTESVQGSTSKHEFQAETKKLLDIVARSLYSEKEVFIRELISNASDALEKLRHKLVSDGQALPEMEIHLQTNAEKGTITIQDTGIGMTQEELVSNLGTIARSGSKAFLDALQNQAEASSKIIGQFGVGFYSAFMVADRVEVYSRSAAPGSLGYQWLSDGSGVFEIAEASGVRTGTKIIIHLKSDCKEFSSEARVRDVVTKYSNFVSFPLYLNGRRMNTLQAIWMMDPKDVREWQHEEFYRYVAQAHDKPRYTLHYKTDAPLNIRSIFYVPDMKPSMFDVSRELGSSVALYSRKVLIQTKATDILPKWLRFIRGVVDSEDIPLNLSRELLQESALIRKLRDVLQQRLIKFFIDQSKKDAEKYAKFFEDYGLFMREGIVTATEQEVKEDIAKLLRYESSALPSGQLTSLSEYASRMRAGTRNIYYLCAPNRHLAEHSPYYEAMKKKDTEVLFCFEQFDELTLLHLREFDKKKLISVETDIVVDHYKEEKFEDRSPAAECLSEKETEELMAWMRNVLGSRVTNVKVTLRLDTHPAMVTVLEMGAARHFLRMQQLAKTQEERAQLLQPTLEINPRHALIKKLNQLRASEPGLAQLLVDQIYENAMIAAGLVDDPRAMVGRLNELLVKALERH
UniProt P22105: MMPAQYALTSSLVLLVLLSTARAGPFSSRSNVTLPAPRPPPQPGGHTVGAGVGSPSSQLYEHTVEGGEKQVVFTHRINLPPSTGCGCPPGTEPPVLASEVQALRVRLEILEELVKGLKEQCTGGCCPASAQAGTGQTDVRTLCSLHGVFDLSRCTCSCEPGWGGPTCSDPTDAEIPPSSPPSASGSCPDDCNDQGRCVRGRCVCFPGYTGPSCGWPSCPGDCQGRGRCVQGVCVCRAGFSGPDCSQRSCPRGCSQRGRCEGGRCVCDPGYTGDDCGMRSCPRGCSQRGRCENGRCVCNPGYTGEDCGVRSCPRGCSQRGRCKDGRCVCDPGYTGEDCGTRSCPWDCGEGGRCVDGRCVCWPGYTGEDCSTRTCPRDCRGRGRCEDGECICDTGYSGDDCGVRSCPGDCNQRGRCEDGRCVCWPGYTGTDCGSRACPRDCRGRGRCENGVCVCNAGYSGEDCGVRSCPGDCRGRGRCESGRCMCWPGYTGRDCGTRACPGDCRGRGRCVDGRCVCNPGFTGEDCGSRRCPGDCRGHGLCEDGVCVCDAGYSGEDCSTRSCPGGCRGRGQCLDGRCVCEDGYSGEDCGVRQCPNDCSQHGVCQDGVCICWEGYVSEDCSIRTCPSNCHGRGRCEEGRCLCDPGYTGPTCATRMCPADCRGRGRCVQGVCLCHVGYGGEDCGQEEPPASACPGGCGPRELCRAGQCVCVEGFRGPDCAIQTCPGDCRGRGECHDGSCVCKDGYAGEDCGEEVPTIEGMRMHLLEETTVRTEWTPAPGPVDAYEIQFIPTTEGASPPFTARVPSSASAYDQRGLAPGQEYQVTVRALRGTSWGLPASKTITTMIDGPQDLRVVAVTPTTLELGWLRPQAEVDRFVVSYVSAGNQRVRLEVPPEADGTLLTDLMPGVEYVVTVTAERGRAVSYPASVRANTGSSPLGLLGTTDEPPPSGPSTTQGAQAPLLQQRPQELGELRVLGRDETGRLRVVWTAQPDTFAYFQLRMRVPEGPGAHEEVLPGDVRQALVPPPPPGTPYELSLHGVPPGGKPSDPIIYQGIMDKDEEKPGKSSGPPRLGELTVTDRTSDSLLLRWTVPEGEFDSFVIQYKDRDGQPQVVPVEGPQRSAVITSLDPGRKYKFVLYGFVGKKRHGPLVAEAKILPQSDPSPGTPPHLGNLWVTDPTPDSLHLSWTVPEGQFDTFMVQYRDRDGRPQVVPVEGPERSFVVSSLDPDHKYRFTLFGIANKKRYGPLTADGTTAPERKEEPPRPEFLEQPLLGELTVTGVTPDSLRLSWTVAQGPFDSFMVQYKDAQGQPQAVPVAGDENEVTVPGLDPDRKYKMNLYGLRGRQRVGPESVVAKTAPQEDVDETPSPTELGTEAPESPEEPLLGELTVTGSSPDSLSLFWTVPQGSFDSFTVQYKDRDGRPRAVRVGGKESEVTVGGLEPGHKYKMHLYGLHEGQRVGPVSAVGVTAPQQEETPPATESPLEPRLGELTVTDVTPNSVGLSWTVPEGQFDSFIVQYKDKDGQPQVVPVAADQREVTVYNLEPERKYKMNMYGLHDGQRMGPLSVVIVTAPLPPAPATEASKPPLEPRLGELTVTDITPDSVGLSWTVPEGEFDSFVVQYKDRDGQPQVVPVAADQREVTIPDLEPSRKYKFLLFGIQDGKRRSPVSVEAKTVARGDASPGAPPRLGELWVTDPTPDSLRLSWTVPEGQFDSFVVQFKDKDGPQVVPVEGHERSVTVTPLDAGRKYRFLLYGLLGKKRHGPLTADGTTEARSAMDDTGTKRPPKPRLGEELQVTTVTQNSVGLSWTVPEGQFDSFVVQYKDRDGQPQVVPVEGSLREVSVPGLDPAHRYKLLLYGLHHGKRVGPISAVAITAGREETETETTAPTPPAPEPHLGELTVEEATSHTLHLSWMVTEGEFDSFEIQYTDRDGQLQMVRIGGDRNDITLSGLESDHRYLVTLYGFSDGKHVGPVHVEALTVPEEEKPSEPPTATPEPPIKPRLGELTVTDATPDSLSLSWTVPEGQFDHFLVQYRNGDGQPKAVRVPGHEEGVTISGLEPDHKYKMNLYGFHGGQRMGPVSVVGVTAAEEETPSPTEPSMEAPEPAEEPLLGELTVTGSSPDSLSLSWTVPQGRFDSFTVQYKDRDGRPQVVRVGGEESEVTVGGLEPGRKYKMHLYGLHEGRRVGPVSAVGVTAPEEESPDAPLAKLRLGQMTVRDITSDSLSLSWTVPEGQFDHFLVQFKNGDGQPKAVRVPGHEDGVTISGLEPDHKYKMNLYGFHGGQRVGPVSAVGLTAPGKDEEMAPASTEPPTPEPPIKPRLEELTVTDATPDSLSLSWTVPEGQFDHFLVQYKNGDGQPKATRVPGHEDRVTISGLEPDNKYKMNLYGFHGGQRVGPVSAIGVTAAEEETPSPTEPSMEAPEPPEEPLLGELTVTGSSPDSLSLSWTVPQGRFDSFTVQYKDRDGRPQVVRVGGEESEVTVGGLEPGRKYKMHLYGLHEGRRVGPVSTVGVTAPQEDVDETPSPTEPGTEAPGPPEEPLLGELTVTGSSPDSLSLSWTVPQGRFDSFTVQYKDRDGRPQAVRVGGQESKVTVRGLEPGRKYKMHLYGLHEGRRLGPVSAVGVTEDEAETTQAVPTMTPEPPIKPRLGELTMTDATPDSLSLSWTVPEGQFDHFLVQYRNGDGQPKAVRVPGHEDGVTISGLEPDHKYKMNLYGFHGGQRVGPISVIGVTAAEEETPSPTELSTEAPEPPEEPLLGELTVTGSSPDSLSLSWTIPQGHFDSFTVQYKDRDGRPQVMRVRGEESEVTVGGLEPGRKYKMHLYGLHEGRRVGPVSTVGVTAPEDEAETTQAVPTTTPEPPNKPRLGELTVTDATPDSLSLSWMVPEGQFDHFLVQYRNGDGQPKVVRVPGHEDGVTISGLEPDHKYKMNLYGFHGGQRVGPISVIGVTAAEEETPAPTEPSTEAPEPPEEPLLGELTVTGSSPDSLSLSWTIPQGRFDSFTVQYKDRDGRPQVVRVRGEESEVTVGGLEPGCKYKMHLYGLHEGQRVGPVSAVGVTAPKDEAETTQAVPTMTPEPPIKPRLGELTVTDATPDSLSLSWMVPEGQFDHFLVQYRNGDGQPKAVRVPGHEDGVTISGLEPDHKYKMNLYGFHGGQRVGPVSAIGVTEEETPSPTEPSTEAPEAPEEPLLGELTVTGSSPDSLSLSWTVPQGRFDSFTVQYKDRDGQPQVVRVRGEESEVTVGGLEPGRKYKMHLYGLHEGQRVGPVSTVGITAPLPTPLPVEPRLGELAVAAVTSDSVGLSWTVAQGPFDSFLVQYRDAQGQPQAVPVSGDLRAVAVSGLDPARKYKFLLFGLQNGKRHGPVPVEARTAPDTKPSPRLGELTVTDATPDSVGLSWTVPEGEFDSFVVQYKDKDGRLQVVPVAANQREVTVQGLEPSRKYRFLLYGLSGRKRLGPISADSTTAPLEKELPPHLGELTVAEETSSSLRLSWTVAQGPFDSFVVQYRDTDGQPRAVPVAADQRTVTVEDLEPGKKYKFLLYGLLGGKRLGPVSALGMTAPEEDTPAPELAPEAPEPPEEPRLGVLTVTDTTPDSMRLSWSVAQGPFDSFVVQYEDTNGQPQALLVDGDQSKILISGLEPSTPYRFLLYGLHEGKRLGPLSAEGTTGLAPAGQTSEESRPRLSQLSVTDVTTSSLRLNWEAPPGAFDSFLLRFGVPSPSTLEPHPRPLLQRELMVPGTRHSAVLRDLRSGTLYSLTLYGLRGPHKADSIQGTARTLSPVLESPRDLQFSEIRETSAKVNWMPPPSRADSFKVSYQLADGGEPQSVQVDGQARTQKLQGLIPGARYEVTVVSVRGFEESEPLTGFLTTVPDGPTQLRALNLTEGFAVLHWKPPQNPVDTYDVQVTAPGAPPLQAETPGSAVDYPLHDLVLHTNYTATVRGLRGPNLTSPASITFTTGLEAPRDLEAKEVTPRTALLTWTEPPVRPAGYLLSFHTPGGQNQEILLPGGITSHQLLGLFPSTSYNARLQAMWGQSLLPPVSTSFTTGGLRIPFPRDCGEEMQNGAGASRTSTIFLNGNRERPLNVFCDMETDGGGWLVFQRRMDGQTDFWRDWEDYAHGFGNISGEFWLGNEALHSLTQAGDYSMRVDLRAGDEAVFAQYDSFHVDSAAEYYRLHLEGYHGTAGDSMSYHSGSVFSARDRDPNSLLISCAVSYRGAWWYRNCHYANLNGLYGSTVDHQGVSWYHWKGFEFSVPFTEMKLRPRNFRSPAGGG
UniProt Q9H496: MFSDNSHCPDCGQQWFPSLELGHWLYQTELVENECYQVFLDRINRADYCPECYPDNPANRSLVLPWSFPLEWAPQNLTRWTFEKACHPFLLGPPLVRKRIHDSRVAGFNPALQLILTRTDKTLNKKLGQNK
UniProt Q15035: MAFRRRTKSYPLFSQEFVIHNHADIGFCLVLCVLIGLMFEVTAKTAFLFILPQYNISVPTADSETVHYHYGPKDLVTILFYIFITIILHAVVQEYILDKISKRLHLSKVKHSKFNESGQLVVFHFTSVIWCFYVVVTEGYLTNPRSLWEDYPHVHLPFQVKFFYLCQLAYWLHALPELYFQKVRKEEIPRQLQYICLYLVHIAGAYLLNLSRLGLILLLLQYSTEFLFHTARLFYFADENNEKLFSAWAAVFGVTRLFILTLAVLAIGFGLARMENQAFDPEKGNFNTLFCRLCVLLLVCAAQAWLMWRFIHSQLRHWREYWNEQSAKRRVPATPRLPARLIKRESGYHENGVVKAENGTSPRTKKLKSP

Assays:
Assay in all cases: log2 fold change, soluble protein after heating vs DMSO (PISA); higher = thermal stabilisation; K562 cells, 10 uM, 30 min; active = over 0.2 and 3.5 SD of the protein, either way, in both replicates (recomputed)
[1] = compound: CC1=C(C=C(C=C1)NC(=O)C2=CC(=CC=C2)C(C)(C)C#N)NC3=CC4=C(C=C3)N=CN(C4=O)C
Procedure, shortened: (§1)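 Thermal stability values are relative to control samples and come from duplicates. They are expressed as log2 fold changes. For measurement, K562 cells (2×10^6 cells/mL) received 10 μM compound for 30 min, and aliquots were heated for 3 min over 48°C-58°C, pooled, and extracted at 4°C in PBS with 0.5% NP-40. Soluble protein, the supernatant after 21,000xg for 90 min, was quantified by TMTpro 16plex LC-MS/MS with equalised channel sums.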

[2] = compound: CC1=C(C=C(C=C1)NC(=O)C2=CC(=CC=C2)N(C)C)NC(=O)C3=CC=C(C=C3)O
Procedure, shortened: as §1

[3] = compound: CC1=CC=C(C=C1)SC2=C3C=C(SC3=CN=C2)C(=O)N
Procedure, shortened: as §1

[4] = compound: CC1=NC(=CC=C1)C2=C(N=C(N2)C(C)(C)C)C3=CC4=NC=CN=C4C=C3
Procedure, shortened: as §1

[5] = compound: CCCCN(Cc1ccc(C(=O)NO)cc1)C(=O)Nc1ccccc1 [Nexturastat A]
Procedure, shortened: as §1

[6] = compound: CCCS(=O)(=O)Nc1ccc(F)c(C(=O)c2c[nH]c3ncc(-c4ccc(Cl)cc4)cc23)c1F [vemurafenib]
Procedure, shortened: as §1

[7] = compound: CCCS(=O)(=O)Nc1ccc(F)c(C(=O)c2c[nH]c3ncc(Cl)cc23)c1F
Procedure, shortened: as §1

[8] = compound: CCCc1cc(C)[nH]c(=O)c1CNC(=O)c1cc(-c2ccnc(N3CCN(C)CC3)c2)cc2c1cnn2C(C)C
Procedure, shortened: as §1

[9] = compound: CCN(CC)Cc1ccc2cc(COC(=O)Nc3ccc(C(=O)NO)cc3)ccc2c1 [givinostat]
Procedure, shortened: as §1

[10] = compound: CCN(CCCOc1ccc2c(Nc3cc(CC(=O)Nc4cccc(F)c4)[nH]n3)ncnc2c1)CCOP(=O)(O)O [barasertib]
Procedure, shortened: as §1

Measured: log2 fold change

TPD52L1 (UniProt Q16890)
inactive: [1] -0.016 | [2] 0.056 | [3] 0.005 | [4] 0.033 | [5] -0.056 | [6] 0.006 | [7] 0.026 | [8] -0.04 | [9] -0.009 | [10] -0.028

TRIM5 (UniProt Q9C035)
inactive: [1] -0.063 | [2] -0.197 | [5] 0.033 | [6] -0.044 | [9] 0.119

TPRG1L (UniProt Q5T0D9)
inactive: [1] 0.106 | [2] -0.062 | [3] 0.216 | [5] -0.042 | [7] 0.238 | [8] -0.376 | [9] 0.138

TRMT61B (UniProt Q9BVS5)
inactive: [1] -0.035 | [2] 0.033 | [3] -0.015 | [4] -0.112 | [5] 0.119 | [6] -0.049 | [7] -0.107 | [8] 0.021 | [9] -0.02 | [10] -0.061

TP53BP2 isoform 3 (UniProt Q13625)
inactive: [1] 0.018 | [2] 0.018 | [3] 0.008 | [4] -0.031 | [5] 0.061 | [6] 0.003 | [7] -0.002 | [9] 0.113 | [10] -0.115

TRUB2 (UniProt O95900)
inactive: [1] -0.071 | [3] 0.044 | [4] 0.052 | [5] 0.068 | [7] -0.359 | [9] 0.014

TRIO (UniProt O75962)
inactive: [1] -0.11 | [2] -0.095 | [4] 0.108 | [5] -0.044 | [8] 0.028 | [9] 0.261 | [10] 0.052

TRAP1 (UniProt Q12931)
inactive: [1] -0.016 | [2] 0.008 | [3] -0.004 | [4] 0.025 | [5] -0.051 | [6] 0.016 | [7] -0.001 | [8] -0.03 | [9] -0.012 | [10] -0.004

TOR1AIP1 (UniProt Q5JTV8)
inactive: [1] 0.077 | [2] 0.031 | [3] -0.001 | [4] -0.074 | [5] 0.056 | [7] 0.033 | [8] -0.057 | [10] 0.024

TRA2A (UniProt Q13595)
inactive: [10] 0.029

TRIM21 (UniProt P19474)
inactive: [3] 0.047 | [7] 0.014 | [8] -0.275 | [9] -0.016 | [10] 0.061

Two records picked at random from those above:
TRUB2 (UniProt O95900)
inactive: [1] -0.071 | [3] 0.044 | [4] 0.052 | [5] 0.068 | [7] -0.359 | [9] 0.014

TP53BP2 isoform 3 (UniProt Q13625)
inactive: [1] 0.018 | [2] 0.018 | [3] 0.008 | [4] -0.031 | [5] 0.061 | [6] 0.003 | [7] -0.002 | [9] 0.113 | [10] -0.115

More entries

TRPM7 (UniProt Q96QT4)
inactive: [2] -0.082 | [3] 0.067 | [4] 0.014 | [5] 0.069 | [6] 0.149 | [7] -0.037 | [8] 0.037 | [9] -0.032 | [10] -0.124

TRIM29 (UniProt Q14134)
inactive: [8] -0.118

TRIM33 isoform 2 (UniProt Q9UPN9)
inactive: [1] 0.117 | [5] 0.032 | [8] 0.266

TRIM65 (UniProt Q6PJ69)
inactive: [2] 0.07 | [4] 0.029 | [6] -0.164

TNKS (UniProt O95271)
inactive: [3] -0.231 | [4] -0.527 | [7] 0.015

TRAF3 (UniProt Q13114)
inactive: [2] -0.171 | [6] -0.227

TRMT2B (UniProt Q96GJ1)
inactive: [2] 0 | [3] -0.109 | [6] 0.015 | [7] -0.106 | [8] -0.096 | [9] -0.032 | [10] -0.199

TNIK isoform 3 (UniProt Q9UKE5)
inactive: [2] 0.087 | [3] -0.006 | [4] 0.004 | [6] -0.057 | [7] -0.002 | [8] 0.022 | [9] 0.038 | [10] -0.022

TRIP12 isoform 3 (UniProt Q14669)
inactive: [2] -0.045 | [4] 0.092 | [5] -0.09 | [6] -0.064 | [8] -0.165 | [10] -0.038

TRPS1 isoform 2 (UniProt Q9UHF7)
inactive: [9] 0.2

TRADD (UniProt Q15628)
inactive: [2] -0.065 | [5] 0.032 | [6] -0.029 | [8] -0.09 | [9] 0.083

TPD52 isoform 3 (UniProt P55327)
inactive: [10] 0

TRIT1 (UniProt Q9H3H1)
inactive: [4] -0.039

TRAF3IP1 (UniProt Q8TDR0)
inactive: [2] -0.095 | [4] -0.056 | [6] -0.002

TNXB isoform 4 (UniProt P22105)
inactive: [4] 0.17 | [8] 0.292

TOR1AIP2 (UniProt Q9H496)
inactive: [2] -0.042 | [5] -0.11 | [8] -0.03 | [10] 0.17

TOM1L2 (UniProt Q6ZVM7)
inactive: [1] -0.038 | [4] -0.132 | [5] -0.046 | [6] -0.008 | [9] 0.025

TRAPPC6A isoform 2 (UniProt O75865)
inactive: [3] -0.052 | [7] 0.067 | [8] -0.032 | [9] -0.003 | [10] 0.359

TRMT5 (UniProt Q32P41)
inactive: [4] 0.12 | [5] 0.099 | [6] 0.128 | [9] -0.128 | [10] -0.055

TRAM2 (UniProt Q15035)
inactive: [1] 0.122 | [3] 0.315 | [6] -0.076 | [7] 0.225 | [9] 0.155 | [10] -0.024
